Source: the supplement of paper PMC7666118
This is one part of the list.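 The calls were made as follows: active = dose-dependent thermal stabilisation significant by F-test of dose-response against flat model at 10% FDR; inactive = not significant.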

Sequences of proteins named here, by UniProt entry; tags and fusion partners are left off. A change or cut given only in a name is not applied to a line headed by its entry.
UniProt P49590: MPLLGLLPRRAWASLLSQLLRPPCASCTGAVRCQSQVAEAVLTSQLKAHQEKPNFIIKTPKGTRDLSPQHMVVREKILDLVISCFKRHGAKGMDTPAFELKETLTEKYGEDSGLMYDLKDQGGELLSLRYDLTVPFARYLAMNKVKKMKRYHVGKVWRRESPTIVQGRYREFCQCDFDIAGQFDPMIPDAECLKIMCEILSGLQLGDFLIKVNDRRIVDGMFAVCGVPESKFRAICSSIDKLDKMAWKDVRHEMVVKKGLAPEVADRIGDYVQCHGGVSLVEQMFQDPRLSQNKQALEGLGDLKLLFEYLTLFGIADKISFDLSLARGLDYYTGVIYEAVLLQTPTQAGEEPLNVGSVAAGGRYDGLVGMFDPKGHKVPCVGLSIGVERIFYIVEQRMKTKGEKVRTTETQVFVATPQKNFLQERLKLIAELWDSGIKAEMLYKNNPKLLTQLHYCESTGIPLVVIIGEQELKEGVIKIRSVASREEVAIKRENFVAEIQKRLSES
UniProt P10412, whole entry: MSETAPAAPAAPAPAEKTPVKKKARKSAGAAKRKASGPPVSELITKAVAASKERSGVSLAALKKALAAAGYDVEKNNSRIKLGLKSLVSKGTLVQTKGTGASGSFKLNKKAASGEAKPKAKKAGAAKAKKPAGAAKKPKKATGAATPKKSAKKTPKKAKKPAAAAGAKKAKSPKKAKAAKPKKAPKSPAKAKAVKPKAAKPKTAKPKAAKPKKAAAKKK
UniProt P11413, whole entry: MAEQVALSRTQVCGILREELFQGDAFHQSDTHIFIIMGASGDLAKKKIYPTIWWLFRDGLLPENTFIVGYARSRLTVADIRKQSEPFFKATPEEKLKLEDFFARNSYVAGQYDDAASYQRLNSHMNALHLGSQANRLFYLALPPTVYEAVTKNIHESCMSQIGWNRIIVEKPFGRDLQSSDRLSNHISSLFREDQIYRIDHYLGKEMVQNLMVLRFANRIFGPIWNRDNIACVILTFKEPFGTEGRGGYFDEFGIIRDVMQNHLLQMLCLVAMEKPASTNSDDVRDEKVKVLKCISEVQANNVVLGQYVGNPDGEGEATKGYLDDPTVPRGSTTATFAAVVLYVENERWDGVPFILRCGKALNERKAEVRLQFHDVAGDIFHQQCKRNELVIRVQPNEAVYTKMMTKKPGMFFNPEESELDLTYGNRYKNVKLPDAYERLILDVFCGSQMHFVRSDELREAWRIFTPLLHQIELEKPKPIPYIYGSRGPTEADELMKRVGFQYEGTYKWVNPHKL
UniProt Q92522: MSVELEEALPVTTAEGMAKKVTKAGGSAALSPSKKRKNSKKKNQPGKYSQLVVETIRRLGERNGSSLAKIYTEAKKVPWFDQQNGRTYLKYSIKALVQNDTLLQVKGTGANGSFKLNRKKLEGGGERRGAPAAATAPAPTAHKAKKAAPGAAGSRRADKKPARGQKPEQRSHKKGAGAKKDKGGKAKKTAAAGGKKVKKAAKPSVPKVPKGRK
UniProt Q14687: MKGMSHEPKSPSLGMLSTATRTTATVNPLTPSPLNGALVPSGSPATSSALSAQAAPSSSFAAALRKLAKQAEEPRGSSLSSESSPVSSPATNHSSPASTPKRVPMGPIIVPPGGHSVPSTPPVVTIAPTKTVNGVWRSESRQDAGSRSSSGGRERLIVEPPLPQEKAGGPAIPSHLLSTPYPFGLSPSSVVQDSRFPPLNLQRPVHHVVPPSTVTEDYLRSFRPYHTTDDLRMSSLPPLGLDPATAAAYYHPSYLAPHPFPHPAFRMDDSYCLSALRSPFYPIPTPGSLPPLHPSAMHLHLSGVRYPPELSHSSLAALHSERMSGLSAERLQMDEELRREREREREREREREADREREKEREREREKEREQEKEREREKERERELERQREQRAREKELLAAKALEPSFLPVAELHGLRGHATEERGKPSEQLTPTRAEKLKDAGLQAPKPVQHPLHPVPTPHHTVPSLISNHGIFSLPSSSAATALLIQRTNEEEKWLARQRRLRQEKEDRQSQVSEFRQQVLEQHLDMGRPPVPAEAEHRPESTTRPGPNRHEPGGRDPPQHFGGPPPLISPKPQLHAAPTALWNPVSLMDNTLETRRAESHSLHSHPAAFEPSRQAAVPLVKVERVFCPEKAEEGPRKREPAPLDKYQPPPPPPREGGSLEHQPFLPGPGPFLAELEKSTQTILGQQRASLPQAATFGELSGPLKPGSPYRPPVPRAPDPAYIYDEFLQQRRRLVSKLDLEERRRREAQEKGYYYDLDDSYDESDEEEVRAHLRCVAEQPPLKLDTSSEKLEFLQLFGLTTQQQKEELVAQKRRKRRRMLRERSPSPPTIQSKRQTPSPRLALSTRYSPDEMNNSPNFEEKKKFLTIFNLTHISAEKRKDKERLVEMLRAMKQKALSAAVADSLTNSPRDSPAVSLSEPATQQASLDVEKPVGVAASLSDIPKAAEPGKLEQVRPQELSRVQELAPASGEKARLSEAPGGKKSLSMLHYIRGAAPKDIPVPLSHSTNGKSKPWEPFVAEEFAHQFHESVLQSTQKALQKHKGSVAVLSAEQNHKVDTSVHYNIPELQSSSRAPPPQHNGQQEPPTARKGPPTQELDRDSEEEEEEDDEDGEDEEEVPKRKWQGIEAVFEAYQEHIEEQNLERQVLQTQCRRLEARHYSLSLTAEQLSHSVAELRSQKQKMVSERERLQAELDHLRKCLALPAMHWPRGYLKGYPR
UniProt Q96CN9: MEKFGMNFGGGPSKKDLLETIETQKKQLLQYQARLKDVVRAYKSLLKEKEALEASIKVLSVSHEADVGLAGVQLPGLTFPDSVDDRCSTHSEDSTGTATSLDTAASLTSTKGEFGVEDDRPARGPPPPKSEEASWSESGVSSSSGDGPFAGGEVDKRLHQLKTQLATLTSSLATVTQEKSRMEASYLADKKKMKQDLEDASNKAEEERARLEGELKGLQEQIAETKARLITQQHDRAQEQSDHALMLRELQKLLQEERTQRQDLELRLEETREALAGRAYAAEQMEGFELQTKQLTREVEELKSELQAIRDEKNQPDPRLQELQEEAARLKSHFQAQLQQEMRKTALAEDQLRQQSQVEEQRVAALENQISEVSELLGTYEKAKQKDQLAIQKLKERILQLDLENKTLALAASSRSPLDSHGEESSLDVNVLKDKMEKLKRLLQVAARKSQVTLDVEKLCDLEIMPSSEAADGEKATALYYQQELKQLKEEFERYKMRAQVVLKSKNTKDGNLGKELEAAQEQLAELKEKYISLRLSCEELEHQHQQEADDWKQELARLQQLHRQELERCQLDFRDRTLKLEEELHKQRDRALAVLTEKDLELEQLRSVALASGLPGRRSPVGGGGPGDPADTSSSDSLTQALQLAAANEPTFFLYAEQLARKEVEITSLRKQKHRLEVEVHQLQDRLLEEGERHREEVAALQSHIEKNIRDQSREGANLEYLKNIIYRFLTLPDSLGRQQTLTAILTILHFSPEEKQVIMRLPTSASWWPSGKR
UniProt P51858: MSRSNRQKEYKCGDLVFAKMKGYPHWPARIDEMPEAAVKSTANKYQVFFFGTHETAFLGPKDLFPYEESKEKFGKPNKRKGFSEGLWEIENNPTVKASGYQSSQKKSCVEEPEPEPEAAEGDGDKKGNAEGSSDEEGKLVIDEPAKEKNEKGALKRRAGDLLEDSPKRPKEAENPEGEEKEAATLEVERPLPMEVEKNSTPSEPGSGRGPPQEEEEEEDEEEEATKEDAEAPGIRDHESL
UniProt Q7Z4H3: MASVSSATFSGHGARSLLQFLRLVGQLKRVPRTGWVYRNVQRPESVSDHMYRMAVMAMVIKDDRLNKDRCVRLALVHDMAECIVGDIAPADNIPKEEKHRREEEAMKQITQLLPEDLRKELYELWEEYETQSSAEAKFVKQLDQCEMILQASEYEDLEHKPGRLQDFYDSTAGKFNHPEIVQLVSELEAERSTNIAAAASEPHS
UniProt Q92538, whole entry: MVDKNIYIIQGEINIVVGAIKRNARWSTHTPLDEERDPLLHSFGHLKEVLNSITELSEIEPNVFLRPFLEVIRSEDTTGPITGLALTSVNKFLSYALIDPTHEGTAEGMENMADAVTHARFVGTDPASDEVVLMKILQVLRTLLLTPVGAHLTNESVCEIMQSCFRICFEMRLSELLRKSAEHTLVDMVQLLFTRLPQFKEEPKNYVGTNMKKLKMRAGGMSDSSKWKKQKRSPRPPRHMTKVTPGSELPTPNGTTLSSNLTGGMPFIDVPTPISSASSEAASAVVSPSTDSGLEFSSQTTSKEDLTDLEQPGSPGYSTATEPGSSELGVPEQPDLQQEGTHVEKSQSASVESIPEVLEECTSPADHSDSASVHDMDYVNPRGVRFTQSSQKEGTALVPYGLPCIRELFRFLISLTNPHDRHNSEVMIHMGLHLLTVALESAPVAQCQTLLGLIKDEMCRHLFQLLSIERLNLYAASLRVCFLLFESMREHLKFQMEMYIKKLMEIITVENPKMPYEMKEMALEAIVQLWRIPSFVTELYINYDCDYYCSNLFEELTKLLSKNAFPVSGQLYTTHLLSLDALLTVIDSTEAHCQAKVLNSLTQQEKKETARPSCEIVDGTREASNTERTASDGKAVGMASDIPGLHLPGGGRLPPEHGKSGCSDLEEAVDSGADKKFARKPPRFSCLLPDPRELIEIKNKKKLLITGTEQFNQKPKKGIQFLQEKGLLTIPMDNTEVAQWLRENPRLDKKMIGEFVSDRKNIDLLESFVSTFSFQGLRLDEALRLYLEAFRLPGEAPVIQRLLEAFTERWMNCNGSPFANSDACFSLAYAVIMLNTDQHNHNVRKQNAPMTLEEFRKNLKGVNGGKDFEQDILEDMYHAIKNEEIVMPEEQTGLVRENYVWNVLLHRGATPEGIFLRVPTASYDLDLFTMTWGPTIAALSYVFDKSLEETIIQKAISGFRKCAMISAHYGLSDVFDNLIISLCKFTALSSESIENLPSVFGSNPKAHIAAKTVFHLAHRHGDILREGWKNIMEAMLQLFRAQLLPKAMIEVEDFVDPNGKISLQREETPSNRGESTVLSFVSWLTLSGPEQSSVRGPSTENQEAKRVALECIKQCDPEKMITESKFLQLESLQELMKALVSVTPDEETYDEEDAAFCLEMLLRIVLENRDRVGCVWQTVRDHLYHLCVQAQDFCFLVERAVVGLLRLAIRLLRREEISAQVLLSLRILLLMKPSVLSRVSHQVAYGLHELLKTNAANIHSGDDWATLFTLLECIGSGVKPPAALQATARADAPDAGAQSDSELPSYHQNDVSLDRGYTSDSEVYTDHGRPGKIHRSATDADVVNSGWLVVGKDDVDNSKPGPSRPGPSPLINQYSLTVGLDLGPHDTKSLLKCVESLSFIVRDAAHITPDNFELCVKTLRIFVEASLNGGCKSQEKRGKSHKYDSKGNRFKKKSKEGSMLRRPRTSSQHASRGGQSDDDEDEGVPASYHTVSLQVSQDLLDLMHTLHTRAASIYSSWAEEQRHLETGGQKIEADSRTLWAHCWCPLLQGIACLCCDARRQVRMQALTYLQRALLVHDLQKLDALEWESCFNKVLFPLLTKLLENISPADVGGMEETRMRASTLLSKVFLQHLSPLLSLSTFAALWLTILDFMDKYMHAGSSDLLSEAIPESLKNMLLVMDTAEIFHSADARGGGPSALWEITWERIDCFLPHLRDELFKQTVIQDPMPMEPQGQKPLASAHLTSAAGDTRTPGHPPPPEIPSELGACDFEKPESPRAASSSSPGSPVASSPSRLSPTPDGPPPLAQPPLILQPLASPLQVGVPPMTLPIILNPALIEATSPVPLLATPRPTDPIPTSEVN
UniProt Q6ZNW5: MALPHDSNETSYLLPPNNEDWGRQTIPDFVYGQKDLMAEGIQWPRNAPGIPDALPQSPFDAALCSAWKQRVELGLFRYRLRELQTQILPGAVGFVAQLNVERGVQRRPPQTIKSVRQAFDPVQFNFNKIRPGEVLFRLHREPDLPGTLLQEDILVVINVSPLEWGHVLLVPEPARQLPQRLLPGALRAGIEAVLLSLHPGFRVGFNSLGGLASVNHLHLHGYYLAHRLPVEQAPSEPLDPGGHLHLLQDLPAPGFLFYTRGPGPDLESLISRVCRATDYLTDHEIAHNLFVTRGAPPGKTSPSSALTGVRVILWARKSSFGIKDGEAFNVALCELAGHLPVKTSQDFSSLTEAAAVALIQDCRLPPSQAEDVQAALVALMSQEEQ
UniProt Q9NWU2, whole entry: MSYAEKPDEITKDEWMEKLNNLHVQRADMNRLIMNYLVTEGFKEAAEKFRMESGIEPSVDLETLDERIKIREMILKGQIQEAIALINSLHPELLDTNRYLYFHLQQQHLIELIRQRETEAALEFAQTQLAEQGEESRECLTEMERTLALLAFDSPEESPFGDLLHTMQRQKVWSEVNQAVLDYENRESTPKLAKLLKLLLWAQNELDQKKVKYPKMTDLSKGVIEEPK
UniProt P05114: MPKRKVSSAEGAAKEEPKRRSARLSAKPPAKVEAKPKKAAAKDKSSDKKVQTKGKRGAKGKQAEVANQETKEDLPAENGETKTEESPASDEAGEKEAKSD

Compound: Nc1nc2c(ncn2[C@@H]2O[C@H](COP(=O)(O)OP(=O)(O)OP(=O)(O)O)[C@@H](O)[C@H]2O)c(=O)[nH]1
Assay: dose-dependent thermal stabilisation call (2D-TPP, DLPTP, 10% FDR) (binary (1 = stabilised)); higher = stabilised by the compound
Settings: system: Jurkat gel-filtered lysate; concentration range 1-500 µM

Row | Target | dose-dependent thermal stabilisation call
1 | GUSB (UniProt P08236) | inactive: 0
2 | HMGB1 (UniProt P09429) | inactive: 0
3 | HARS2 (UniProt P49590) | active: 1
4 | HMGCS1 (UniProt Q01581) | inactive: 0
5 | GEN1 (UniProt Q17RS7) | inactive: 0
6 | HDAC2 (UniProt Q92769) | inactive: 0
7 | GLA (UniProt P06280) | active: 1
8 | HIST1H1E (UniProt P10412) | inactive: 0
9 | GSPT2 (UniProt Q8IYD1) | active: 1
10 | GTF3C4 (UniProt Q9UKN8) | active: 1
11 | G6PD (UniProt P11413) | inactive: 0
12 | GDI1 (UniProt P31150) | active: 1
13 | GCH1 (UniProt P30793) | inactive: 0
14 | GSTP1 (UniProt P09211) | inactive: 0
15 | HMGCL (UniProt P35914) | inactive: 0
16 | GABPB1 (UniProt Q06547) | inactive: 0
17 | HECA (UniProt Q9UBI9) | inactive: 0
18 | GPD1L (UniProt Q8N335) | active: 1

Row | Target | dose-dependent thermal stabilisation call
19 | GNPDA1 (UniProt P46926) | inactive: 0
20 | GSK3B (UniProt P49841) | active: 1
21 | GRSF1 (UniProt Q12849) | inactive: 0
22 | H1FX (UniProt Q92522) | inactive: 0
23 | GSE1 (UniProt Q14687) | inactive: 0
24 | GNAO1 (UniProt P09471) | inactive: 0
25 | HDGFL3 (UniProt Q9Y3E1) | inactive: 0
26 | GCC1 (UniProt Q96CN9) | active: 1
27 | HMOX2 (UniProt P30519) | inactive: 0
28 | GLMN (UniProt Q92990) | inactive: 0
29 | GATAD2A (UniProt Q86YP4) | inactive: 0
30 | HDGF (UniProt P51858) | inactive: 0
31 | HDDC2 (UniProt Q7Z4H3) | inactive: 0
32 | GBF1 (UniProt Q92538) | inactive: 0
33 | GDPGP1 (UniProt Q6ZNW5) | inactive: 0
34 | GPX1 (UniProt P07203) | inactive: 0
35 | GID8 (UniProt Q9NWU2) | inactive: 0
36 | HMGN1 (UniProt P05114) | inactive: 0

Reformatted comma-delimited: part of the list above
Row,Target,dose-dependent thermal stabilisation call
21,GRSF1 (UniProt Q12849),inactive: 0
25,HDGFL3 (UniProt Q9Y3E1),inactive: 0
29,GATAD2A (UniProt Q86YP4),inactive: 0
